Results as given in patent US11168052B2, “Carbamate derivative compounds, processes for preparing them and their uses” (BIO-PHARM SOLUTIONS CO., LTD., priority 2016, dated 2021).

Tests used:
[1] = tested on: MES (electroshock) seizure in rats; assay: Anti-epilepsy activity, MES test in rats; type: in vivo, SD rats
Protocol: In the MES test (Ref., G. Villetti et al. Neuropharmacology 40(2001) 866-878), an electrical stimulus (mice: 50 mA, 60 Hz, 0.2 sec, and rats: 150 mA, 60 Hz, 0.2 sec in the test animal) supplied by an 11A Shocker (IITC Life Science Company) was delivered through corneal electrodes. All mice or rats assigned to any electroshock at peak time were treated with each test compound sample which was dissolved in 20% tween 80 prepared by saline solvent applied orally before the test. […] Three doses of the test sample were administered orally to 9-18 animals (3-6 mice per dose) for evaluating the respective doses at which 50% of the animals were protected from seizure (ED50). The ED50 value (median effective dose) was calculated by Litchfield and Wicoxon log-probit method which is a dose-response relationship. Experimental animals, male ICR mice and male SD rats, were purchased from OrientBio, Samtako, or Nara Biotech, Korea, and housed in cages (4-5 mice or 3 rats per cage) for 4-5 days. The range of mice body weight was between 19 and 25 grams and range of rats body weight was between 100 and 130 grams.

[2] = tested on: PTZ (Pentylenetetrazol)-induced clonic seizure in rats; assay: Anti-epilepsy activity, scPTZ test in rats; type: in vivo, SD rats
Source text: In this experiment, each test compound sample was formulated as described in Biological Experimental Example 1, and administered intraperitoneally to the test animals (mice; ICR or Rat; SD); Experimental animals, male ICR mice and male SD rats, were purchased from OrientBio or Nara biotech, Korea, and housed 4-5 mice per a cage for 4-5 days. The range of mice body weight was used between 19 and 26 grams and range of rats body weight was used between 100 and 130 grams. After Peak time (0.5, 1, 2 and 4 hr) from the administration, PTZ (Pentylenetetrazol) was administered subcutaneously in the concentration capable of inducing 97% intermittent convulsions (mice: 100-110 mg/kg?bw, 10 μl/g, or rats: 90-110 mg/kg?bw, 2 μl/g). If clonic seizure was not observed for at least 30 minutes in the PTZ administered animal, it can be considered that the test compound has anti-epilepsy activity. The median effective dose (ED50) is determined using 6 animals per a concentration (total three different concentrations), and calculated by Litchfield and Wicoxon log-probit method which is a dose-response relationship.

[3] = tested on: acetic acid-induced writhes in ICR mice; assay: Writhing test (acetic acid); type: in vivo; conditions: po
Protocol: To examine the pain relief effect of the carbamate compounds, a writhing test was conducted, referring to Fischer, L. G. et al. (2008).
ICR mice (male, 24-28g; Orient Bio, Korea) were habituated before test (in test room) for 1 hour. Animals were fasted 2 hr before administration of compounds. Each of compounds was orally administered at the three dose, 10 ul/g, bw (n=3-5/group). All compounds were dissolved in a vehicle of 30% (v/v) PEG 400 or 20% (v/v) Tween 80. The control group was treated the vehicle without compounds.
0.2-2 hour after the administration of compounds, 0.6% acetic acid at the dose of 10 ul/g by bodyweight was injected into the mice Animals were habituated in the cage for 5 min. 5 min after habituation, the number of writhes (abdominal constriction) was counted for 15 min, referring to Korzeniewska-Rybicka, I. et al. (1998) and compared with that of a control.
The relative values compared to the control (% control) were calculated and shown in […]

[4] = tested on: CFA-induced pain model in rats; assay: Antiallodynic activity on Complete Freund's Adjuvant (CFA)-induced inflammatory pain model; type: in vivo, Sprague-Dawley rats; conditions: intraperitoneally
Summary of the method: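 Male Sprague-Dawley rats given 100 ul CFA intraplantar in the right hind paw; one week later, ipsilateral mechanical allodynia (baseline threshold <4 g required) assessed with von Frey up-and-down method, 50% withdrawal threshold by Dixon formula. Compounds 50 mg/kg i.p. in 30% PEG or 20% Tween 80, tested 0.5 h post-dose; values as % of sham.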

[5] = tested on: MES (electroshock) seizure in mice; assay: Anti-epilepsy activity, MES test in mouse; type: in vivo, ICR mice
Summary of the method: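 Male ICR mice (19–25 g) and male SD rats (100–130 g) dosed orally with compound in 20% Tween 80/saline, then shocked via corneal electrodes at peak time (mice 50 mA, rats 150 mA; 60 Hz, 0.2 sec). Three doses used; ED50 for seizure protection by Litchfield–Wilcoxon log-probit.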

`NC(=O)O[C@@H]1CCc2cccc(Cl)c2[C@@H]1O` [Example 1, (1S, 2R)-8-chloro-1-hydroxy-1,2,3,4-tetrahydronaphthalen-2-yl carbamate] was tested, and the “MES test (po) Peak time” value [1] was 1 h, the “scPTZ test (ip) peak time” value [2] was 0.5 h and the “Writhing test Peak Time” value [3] was 1 h. The “CFA model Peak Time” value [4] was 0.5 h and the “MES test (po) Peak time” value [5] was 0.5 h.
With `NC(=O)O[C@@H]1c2c(Cl)cccc2CC[C@@H]1O` [Example 19, (1R, 2S)-8-chloro-2-hydroxy-1,2,3,4-tetrahydronaphthalen-1-yl carbamate] the “MES test (po) Peak time” value [1] was 2 h, the “scPTZ test (ip) peak time” value [2] was 4 h and the “Writhing test Peak Time” value [3] was 1 h. The “CFA model Peak Time” value [4] was 0.5 h and the “MES test (po) Peak time” value [5] was 1 h.
